Laboratory results taken from the supplement of paper PMC10849652.
Some of the results follow.

By UniProt entry, the sequences of proteins in these tests, tags left out. Where a name states a change or a piece, a line headed by the entry shows the natural chain unless it says otherwise.
UniProt Q9BXH1: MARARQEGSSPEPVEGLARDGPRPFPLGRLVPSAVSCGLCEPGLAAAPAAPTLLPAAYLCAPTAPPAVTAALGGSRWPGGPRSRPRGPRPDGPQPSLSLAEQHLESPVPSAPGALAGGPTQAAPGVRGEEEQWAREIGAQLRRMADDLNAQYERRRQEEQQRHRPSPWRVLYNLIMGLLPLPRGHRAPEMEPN
UniProt Q8WUW1: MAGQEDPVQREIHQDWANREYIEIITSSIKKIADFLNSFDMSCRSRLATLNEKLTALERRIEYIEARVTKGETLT
UniProt Q9UHQ4: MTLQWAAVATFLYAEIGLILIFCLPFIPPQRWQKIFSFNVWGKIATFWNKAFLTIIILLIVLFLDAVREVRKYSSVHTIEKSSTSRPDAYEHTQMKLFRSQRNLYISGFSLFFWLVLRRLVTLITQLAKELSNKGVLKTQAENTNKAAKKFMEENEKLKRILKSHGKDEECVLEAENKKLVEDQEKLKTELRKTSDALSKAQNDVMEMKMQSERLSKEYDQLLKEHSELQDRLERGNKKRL
UniProt Q9H0E9, whole entry, looked up: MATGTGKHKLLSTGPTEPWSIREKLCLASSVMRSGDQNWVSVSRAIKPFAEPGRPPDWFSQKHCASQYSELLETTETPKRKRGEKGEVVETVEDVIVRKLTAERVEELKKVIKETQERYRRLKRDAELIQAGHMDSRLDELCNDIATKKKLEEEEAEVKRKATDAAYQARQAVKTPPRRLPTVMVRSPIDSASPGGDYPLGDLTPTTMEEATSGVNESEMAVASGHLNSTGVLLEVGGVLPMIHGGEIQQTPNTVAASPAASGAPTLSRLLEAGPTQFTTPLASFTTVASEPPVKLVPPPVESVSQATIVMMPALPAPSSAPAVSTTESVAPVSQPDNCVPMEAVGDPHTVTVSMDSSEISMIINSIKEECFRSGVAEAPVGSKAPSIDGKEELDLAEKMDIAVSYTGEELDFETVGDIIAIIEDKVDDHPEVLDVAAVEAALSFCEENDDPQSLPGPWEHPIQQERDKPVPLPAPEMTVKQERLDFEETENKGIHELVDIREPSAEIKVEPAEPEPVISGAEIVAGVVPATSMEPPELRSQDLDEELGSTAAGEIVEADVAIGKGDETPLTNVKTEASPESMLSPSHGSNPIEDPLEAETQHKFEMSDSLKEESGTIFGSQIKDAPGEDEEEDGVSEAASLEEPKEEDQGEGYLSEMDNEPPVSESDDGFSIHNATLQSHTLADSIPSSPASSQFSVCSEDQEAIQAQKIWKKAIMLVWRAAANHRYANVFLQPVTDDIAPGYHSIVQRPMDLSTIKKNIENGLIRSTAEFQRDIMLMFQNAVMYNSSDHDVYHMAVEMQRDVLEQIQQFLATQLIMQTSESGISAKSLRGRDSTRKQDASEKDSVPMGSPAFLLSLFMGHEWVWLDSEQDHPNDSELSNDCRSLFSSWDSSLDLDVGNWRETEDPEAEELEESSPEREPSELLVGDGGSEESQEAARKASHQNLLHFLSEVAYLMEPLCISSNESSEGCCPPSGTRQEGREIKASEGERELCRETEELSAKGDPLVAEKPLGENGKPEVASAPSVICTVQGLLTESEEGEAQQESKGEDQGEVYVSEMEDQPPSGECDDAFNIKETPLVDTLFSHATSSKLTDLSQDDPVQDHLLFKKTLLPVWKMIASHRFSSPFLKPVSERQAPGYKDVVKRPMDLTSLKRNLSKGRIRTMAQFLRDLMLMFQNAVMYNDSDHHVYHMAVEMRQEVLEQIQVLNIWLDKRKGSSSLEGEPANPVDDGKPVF
UniProt Q8WXE1: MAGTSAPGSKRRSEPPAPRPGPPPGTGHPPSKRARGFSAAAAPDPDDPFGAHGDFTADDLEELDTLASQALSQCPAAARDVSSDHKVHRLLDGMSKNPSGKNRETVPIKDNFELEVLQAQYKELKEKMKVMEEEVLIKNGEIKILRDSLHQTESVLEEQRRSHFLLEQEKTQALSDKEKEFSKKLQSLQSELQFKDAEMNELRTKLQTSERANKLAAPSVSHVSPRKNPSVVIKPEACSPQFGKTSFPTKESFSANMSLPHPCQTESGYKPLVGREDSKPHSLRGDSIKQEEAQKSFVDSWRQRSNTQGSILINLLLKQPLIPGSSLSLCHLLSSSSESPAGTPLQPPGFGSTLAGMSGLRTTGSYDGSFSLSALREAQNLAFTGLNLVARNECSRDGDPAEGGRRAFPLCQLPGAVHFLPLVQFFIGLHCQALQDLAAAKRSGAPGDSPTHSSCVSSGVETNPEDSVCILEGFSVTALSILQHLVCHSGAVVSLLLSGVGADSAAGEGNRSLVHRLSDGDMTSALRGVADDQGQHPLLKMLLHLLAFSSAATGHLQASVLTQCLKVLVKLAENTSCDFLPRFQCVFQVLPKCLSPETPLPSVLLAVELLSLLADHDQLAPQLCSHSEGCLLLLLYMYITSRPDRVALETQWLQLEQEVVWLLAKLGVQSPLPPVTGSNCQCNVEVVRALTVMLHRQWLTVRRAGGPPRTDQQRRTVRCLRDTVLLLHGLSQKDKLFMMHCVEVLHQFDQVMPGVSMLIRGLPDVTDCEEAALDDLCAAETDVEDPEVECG
UniProt Q15059, whole entry, looked up: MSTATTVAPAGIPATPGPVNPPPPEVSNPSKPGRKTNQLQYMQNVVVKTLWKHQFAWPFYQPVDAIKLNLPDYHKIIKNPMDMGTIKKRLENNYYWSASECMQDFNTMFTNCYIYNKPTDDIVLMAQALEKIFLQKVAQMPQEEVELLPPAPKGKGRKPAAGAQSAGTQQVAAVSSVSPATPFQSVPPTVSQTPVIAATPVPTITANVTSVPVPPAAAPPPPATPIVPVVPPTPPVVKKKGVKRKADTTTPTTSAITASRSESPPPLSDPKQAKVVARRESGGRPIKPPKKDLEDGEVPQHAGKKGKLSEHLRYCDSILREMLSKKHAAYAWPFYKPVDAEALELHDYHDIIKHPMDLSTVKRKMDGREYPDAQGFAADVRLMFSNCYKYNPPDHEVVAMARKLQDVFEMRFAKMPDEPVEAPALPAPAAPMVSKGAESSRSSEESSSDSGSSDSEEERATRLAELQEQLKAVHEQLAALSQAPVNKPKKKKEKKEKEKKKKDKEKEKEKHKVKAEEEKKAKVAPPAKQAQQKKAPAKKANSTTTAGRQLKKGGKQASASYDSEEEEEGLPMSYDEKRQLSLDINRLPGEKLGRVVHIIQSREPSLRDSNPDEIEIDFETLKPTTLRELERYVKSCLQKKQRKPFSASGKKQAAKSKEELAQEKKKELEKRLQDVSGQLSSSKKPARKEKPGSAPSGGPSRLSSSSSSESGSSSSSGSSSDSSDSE
UniProt O95429: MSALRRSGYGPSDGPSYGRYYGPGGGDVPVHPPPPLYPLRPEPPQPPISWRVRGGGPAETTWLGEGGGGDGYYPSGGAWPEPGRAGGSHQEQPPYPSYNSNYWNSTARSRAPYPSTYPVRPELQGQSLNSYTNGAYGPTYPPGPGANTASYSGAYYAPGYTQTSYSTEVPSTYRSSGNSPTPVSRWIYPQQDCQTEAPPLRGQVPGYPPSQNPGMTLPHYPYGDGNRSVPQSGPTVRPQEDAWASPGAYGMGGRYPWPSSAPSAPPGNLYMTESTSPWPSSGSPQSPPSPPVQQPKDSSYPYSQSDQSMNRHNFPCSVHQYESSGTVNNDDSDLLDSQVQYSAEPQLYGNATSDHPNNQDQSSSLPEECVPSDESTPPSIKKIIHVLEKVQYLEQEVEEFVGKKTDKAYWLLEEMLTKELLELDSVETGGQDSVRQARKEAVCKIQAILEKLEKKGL
UniProt O75882: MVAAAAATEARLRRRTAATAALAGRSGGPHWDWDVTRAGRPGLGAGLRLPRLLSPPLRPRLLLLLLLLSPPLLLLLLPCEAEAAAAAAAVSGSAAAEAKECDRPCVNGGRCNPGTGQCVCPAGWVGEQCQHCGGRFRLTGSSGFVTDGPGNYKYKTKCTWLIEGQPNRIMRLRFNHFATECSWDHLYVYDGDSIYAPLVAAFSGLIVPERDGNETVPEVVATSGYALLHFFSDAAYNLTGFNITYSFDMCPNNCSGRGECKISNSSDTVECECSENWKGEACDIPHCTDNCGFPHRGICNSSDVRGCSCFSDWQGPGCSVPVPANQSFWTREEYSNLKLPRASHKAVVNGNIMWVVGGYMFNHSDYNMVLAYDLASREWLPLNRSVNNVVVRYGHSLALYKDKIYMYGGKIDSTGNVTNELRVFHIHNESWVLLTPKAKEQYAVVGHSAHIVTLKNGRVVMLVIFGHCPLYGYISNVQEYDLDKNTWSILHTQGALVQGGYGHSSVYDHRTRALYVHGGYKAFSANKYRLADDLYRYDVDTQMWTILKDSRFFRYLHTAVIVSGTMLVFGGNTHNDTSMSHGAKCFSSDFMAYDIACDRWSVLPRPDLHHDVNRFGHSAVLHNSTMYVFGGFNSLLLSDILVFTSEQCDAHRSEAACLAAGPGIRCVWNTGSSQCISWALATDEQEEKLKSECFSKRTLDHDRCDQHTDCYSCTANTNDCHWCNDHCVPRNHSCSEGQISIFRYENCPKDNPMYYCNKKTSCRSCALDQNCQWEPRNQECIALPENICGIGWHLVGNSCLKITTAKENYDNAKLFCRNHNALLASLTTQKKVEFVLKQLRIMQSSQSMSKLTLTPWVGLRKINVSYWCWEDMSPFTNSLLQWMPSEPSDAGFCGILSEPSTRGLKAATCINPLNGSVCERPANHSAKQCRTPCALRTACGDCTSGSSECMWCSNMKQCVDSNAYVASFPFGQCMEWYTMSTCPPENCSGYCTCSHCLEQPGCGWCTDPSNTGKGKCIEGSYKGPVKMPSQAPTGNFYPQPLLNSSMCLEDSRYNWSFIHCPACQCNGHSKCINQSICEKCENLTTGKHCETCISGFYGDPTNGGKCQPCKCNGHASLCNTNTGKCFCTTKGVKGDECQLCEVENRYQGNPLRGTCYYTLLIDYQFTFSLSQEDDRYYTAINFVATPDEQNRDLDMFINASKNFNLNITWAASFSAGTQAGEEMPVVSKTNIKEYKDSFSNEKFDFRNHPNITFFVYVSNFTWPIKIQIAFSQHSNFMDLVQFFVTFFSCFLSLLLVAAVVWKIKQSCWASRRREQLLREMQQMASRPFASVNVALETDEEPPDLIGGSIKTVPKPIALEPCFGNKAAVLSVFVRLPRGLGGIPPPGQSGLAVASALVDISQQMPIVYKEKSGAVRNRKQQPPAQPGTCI
UniProt O43505: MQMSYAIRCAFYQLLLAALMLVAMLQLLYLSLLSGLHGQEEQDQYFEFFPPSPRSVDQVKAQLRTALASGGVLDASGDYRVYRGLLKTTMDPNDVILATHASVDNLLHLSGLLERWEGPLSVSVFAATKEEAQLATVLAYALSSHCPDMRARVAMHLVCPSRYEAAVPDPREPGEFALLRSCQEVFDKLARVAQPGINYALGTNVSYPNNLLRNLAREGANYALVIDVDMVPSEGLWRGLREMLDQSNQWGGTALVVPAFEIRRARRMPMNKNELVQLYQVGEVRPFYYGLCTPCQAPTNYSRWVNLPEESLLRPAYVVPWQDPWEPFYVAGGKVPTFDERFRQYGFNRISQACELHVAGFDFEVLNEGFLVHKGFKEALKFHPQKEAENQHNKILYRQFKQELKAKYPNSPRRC
UniProt P07738: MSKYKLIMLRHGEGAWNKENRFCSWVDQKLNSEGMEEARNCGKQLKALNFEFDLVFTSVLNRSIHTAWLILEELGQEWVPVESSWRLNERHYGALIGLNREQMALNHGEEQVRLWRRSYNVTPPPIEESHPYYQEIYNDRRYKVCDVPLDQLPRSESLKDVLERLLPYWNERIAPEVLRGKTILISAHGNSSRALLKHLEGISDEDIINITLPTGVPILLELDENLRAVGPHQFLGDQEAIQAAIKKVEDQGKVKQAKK
UniProt P61769, whole entry, looked up: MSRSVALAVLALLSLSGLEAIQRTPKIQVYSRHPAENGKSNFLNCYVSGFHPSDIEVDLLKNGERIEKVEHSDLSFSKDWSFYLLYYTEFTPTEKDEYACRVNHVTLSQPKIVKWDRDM
UniProt O95861: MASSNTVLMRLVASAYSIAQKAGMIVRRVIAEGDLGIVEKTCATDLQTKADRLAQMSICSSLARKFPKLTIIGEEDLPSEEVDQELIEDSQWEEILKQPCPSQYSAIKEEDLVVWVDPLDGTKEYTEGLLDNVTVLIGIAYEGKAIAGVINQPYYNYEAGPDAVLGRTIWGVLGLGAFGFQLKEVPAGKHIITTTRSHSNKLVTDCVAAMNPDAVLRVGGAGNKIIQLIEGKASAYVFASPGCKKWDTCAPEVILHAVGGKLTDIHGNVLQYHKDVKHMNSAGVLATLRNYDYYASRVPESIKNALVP
UniProt Q9P287, whole entry, looked up: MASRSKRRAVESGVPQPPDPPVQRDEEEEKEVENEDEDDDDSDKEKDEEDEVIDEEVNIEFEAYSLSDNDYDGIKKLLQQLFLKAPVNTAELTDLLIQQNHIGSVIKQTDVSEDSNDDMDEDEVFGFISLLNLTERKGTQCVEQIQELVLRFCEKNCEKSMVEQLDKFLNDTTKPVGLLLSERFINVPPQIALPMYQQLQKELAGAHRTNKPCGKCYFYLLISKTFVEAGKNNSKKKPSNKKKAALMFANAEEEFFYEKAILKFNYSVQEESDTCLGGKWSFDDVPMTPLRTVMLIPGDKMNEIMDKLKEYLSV

Experiments:
Experiment in all cases: log2 fold change, soluble protein after heating vs DMSO (PISA); higher = thermal stabilisation; K562 cells, 10 uM, 30 min; active = over 0.2 and 3.5 SD of the protein, either way, in both replicates (recomputed)
bafetinib = compound: Cc1ccc(NC(=O)c2ccc(CN3CC[C@H](N(C)C)C3)c(C(F)(F)F)c2)cc1Nc1nccc(-c2cncnc2)n1 [bafetinib]
Summary of the method: (§1)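 K562 cells at 2×10^6 cells/mL were treated with 10 μM compound for 30 min. Aliquots were heated for 3 min across 48°C-58°C, pooled, and extracted in PBS with 0.5% NP-40 at 4°C; soluble protein was the supernatant after 21,000xg for 90 min. Soluble protein was quantified by TMTpro 16plex LC-MS/MS with channel sums equalised, and reported as log2 fold change in thermal stability against DMSO controls, with values from duplicates.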

[1] = compound: Cc1cccc(CC(=O)N2CCc3c2ccc(-c2cn(C)c4ncnc(N)c24)c3F)n1
Summary of the method: as §1

nilotinib = compound: Cc1cn(-c2cc(NC(=O)c3ccc(C)c(Nc4nccc(-c5cccnc5)n4)c3)cc(C(F)(F)F)c2)cn1 [nilotinib]
Summary of the method: as §1

[2] = compound: Cc1nc(Nc2n[nH]c3c2CN(C(=O)N[C@H](CN(C)C)c2ccccc2)C3(C)C)c2sccc2n1
Summary of the method: as §1

dasatinib = compound: Cc1nc(Nc2ncc(C(=O)Nc3c(C)cccc3Cl)s2)cc(N2CCN(CCO)CC2)n1 [dasatinib]
Summary of the method: as §1

[3] = compound: Cc1ncc(-c2ccnc(Nc3ccc(S(C)(=O)=O)cc3)n2)n1C(C)C
Summary of the method: as §1

[4] = compound: Cn1cc(-c2ccc3c(c2)CCN3C(=O)Cc2cccc(C(F)(F)F)c2)c2c(N)ncnc21
Summary of the method: as §1

[5] = compound: Cn1cc(-c2ccc3nnc(C(F)(F)c4ccc5ncccc5c4)n3n2)cn1
Summary of the method: as §1

tipifarnib = compound: Cn1cncc1[C@@](N)(c1ccc(Cl)cc1)c1ccc2c(c1)c(-c1cccc(Cl)c1)cc(=O)n2C [tipifarnib]
Summary of the method: as §1

mubritinib = compound: FC(F)(F)c1ccc(/C=C/c2nc(COc3ccc(CCCCn4ccnn4)cc3)co2)cc1 [mubritinib]
Summary of the method: as §1

[6] = compound: NC(=O)Nc1cc(-c2cccc(F)c2)sc1C(=O)N[C@H]1CCCNC1
Summary of the method: as §1

[7] = compound: NC(=O)c1cnc(N[C@@H]2CCCC[C@@H]2N)nc1Nc1cccc(-n2nccn2)c1
Summary of the method: as §1

[8] = compound: NC1(c2ccc(-c3nc4ccn5c(=O)[nH]nc5c4cc3-c3ccccc3)cc2)CCC1
Summary of the method: as §1

[9] = compound: NCC(=O)Nc1ccc(-n2nc(C(F)(F)F)cc2-c2ccc3c(ccc4ccccc43)c2)cc1
Summary of the method: as §1

entinostat = compound: Nc1ccccc1NC(=O)c1ccc(CNC(=O)OCc2cccnc2)cc1 [entinostat]
Summary of the method: as §1

vorinostat = compound: O=C(CCCCCCC(=O)Nc1ccccc1)NO [vorinostat]
Summary of the method: as §1

citarinostat = compound: O=C(CCCCCCNC(=O)c1cnc(N(c2ccccc2)c2ccccc2Cl)nc1)NO [citarinostat]
Summary of the method: as §1

silmitasertib = compound: O=C(O)c1ccc2c(c1)nc(Nc1cccc(Cl)c1)c1ccncc12 [silmitasertib]
Summary of the method: as §1

[10] = compound: O=C1NC(=O)C(c2cnc3ccccn23)=C1c1cn2c3c(cc(F)cc13)CN(C(=O)N1CCCCC1)CC2
Summary of the method: as §1

[11] = compound: c1cc(OCCN2CCCCC2)cc(-c2n[nH]c3ccc(-c4nnc[nH]4)cc23)c1
Summary of the method: as §1

Target | log2 fold change (bafetinib) | log2 fold change [1] | log2 fold change (nilotinib) | log2 fold change [2] | log2 fold change (dasatinib) | log2 fold change [3] | log2 fold change [4] | log2 fold change [5] | log2 fold change (tipifarnib) | log2 fold change (mubritinib) | log2 fold change [6] | log2 fold change [7] | log2 fold change [8] | log2 fold change [9] | log2 fold change (entinostat) | log2 fold change (vorinostat) | log2 fold change (citarinostat) | log2 fold change (silmitasertib) | log2 fold change [10] | log2 fold change [11]
B3GLCT (UniProt Q6Y288) | inactive: 0.049 | inactive: 0.002 | inactive: 0.046 | inactive: 0.015 | inactive: -0.108 | inactive: -0.072 | inactive: -0.036 | inactive: -0.033 | inactive: -0.24 | inactive: -0.094 | inactive: 0.001 | inactive: 0.005 | inactive: -0.036 | inactive: -0.038 | inactive: -0.032 | inactive: -0.14 | inactive: -0.04 | inactive: -0.025 | inactive: 0.054 | inactive: 0.028
AVL9 (UniProt Q8NBF6) | inactive: -0.096 | inactive: 0.02 | inactive: -0.011 | inactive: -0.056 | inactive: -0.111 | inactive: -0.01 | inactive: 0.059 | inactive: 0.041 | inactive: -0.043 | inactive: 0.074 | inactive: 0.006 | inactive: -0.128 | inactive: -0.228 | inactive: -0.039 | inactive: 0.003 | inactive: 0.064 | inactive: 0.086 | inactive: -0.019 | inactive: -0.007 | inactive: -0.104
BBC3 (UniProt Q9BXH1) | inactive: -0.199 | inactive: 0.05 | inactive: 0.025 | inactive: 0.004 | inactive: 0.088 | inactive: 0.011 | inactive: 0.085 | inactive: 0.11 | inactive: 0.049 | inactive: 0.026 |  | inactive: -0.093 | inactive: 0.027 | inactive: -0.026 |  | inactive: -0.067 | inactive: 0.04 | inactive: 0.053 | inactive: -0.128 | inactive: -0.062
BRK1 isoform 2 (UniProt Q8WUW1) | inactive: -0.043 | inactive: 0.007 | inactive: 0.02 | inactive: -0.051 | inactive: 0.054 | inactive: -0.051 | inactive: 0.047 | inactive: 0.186 | inactive: -0.049 | inactive: 0.002 | inactive: -0.071 | inactive: 0.033 | inactive: -0.019 | inactive: 0.065 | inactive: 0.079 | inactive: -0.06 | inactive: 0.031 | inactive: -0.063 | inactive: -0.16 | inactive: -0.078
BCAP29 isoform 2 (UniProt Q9UHQ4) | inactive: -0.159 | inactive: -0.027 | inactive: -0.002 | inactive: 0.035 | inactive: 0.154 | inactive: -0.018 | inactive: 0 | inactive: 0.04 | inactive: 0.058 | inactive: 0.02 | inactive: 0.001 | inactive: 0.049 | inactive: 0.034 | inactive: -0.094 | inactive: -0.014 | inactive: -0.064 | inactive: -0.015 | inactive: 0.031 | inactive: -0.043 | inactive: -0.036
BRD8 (UniProt Q9H0E9) | inactive: -0.032 | inactive: -0.072 | inactive: -0.01 | inactive: -0.055 | inactive: 0.057 | inactive: -0.019 | inactive: 0.018 | inactive: -0.028 | inactive: 0.054 | inactive: 0.011 | inactive: 0.008 | inactive: -0.107 | inactive: 0.038 | inactive: -0.014 | inactive: -0.041 | inactive: -0.125 | inactive: -0.12 | inactive: 0.038 | inactive: 0.022 | inactive: -0.059
ATRIP (UniProt Q8WXE1) | inactive: 0.032 | inactive: 0.045 | inactive: -0.09 | inactive: 0.021 | inactive: 0.033 | inactive: -0.058 | inactive: -0.035 | inactive: 0.158 | inactive: -0.025 | inactive: 0.033 | inactive: -0.017 | inactive: -0.059 | inactive: -0.133 | inactive: -0.033 | inactive: -0.026 | inactive: -0.012 | inactive: -0.028 | inactive: 0.112 | inactive: -0.003 | inactive: 0.004
BRD3 (UniProt Q15059) | inactive: -0.152 | inactive: -0.002 | inactive: -0.088 | inactive: -0.031 | inactive: -0.319 | inactive: -0.138 | inactive: -0.05 | inactive: 0.086 | inactive: -0.126 | inactive: 0.047 | inactive: 0.008 | inactive: -0.026 | inactive: 0.017 | inactive: 0.119 | inactive: -0.123 | active: -0.663 | active: -0.567 | inactive: 0.061 |  | inactive: -0.002
BAG4 (UniProt O95429) | inactive: -0.073 | inactive: -0.008 | inactive: 0.002 | inactive: -0.058 | inactive: 0.001 | inactive: -0.051 | inactive: 0.043 | inactive: -0.055 | inactive: 0.019 | inactive: -0.001 | inactive: 0.016 | inactive: -0.02 | inactive: -0.039 | inactive: -0.017 | inactive: -0.009 | inactive: 0.049 | inactive: 0.019 | inactive: -0.011 | inactive: -0.019 | inactive: -0.071
ATRN (UniProt O75882) | inactive: -0.006 | inactive: 0.004 | inactive: 0.027 | inactive: -0.055 | inactive: -0.047 | inactive: 0 | inactive: 0.097 |  | inactive: 0.048 | inactive: -0.027 | inactive: -0.007 | inactive: -0.023 | inactive: -0.073 | inactive: -0.031 | inactive: -0.016 | inactive: -0.006 | inactive: -0.004 | inactive: 0.006 | active: -0.538 | inactive: -0.092
B4GAT1 (UniProt O43505) | inactive: -0.158 | inactive: 0.138 | inactive: 0.031 | inactive: 0.28 | inactive: -0.012 | inactive: -0.051 | inactive: -0.129 | inactive: -0.011 | inactive: -0.085 |  |  | inactive: 0.093 |  | inactive: 0.105 |  | inactive: 0.109 | inactive: 0.114 |  | inactive: 0.036 | inactive: 0
BPGM (UniProt P07738) | inactive: -0.019 | inactive: 0.001 | inactive: 0.005 | inactive: -0.008 | inactive: 0.044 | inactive: -0.034 | inactive: 0.032 | inactive: -0.128 | inactive: 0.022 | inactive: 0.064 | inactive: -0.008 | inactive: 0.018 | inactive: 0.029 | inactive: 0.053 | inactive: -0.045 | inactive: -0.007 | inactive: 0.034 | inactive: -0.016 | inactive: -0.01 | inactive: -0.001
B2M (UniProt P61769) | inactive: 0.098 | inactive: 0.011 | inactive: 0.069 | inactive: -0.058 | inactive: 0.047 | inactive: 0.004 | inactive: 0.038 | inactive: 0.031 | inactive: -0.07 | inactive: -0.054 | inactive: -0.024 | inactive: -0.091 | inactive: 0.025 | inactive: 0.083 | inactive: -0.021 | inactive: -0.028 | inactive: 0.036 | inactive: -0.01 | inactive: -0.098 | inactive: -0.2
BPNT1 (UniProt O95861) | inactive: 0.021 | inactive: -0.027 | inactive: 0.1 | inactive: 0.042 | inactive: 0.028 | inactive: 0.001 | inactive: 0.023 | inactive: 0.01 | inactive: -0.049 | inactive: 0.037 | inactive: -0.017 | inactive: 0.004 | inactive: 0.007 | inactive: -0.016 | inactive: -0.011 | inactive: -0.023 | inactive: 0.003 | inactive: -0.032 | inactive: -0.046 | inactive: -0.01
BCCIP (UniProt Q9P287) | inactive: 0.048 | inactive: 0 | inactive: -0.019 | inactive: -0.022 | inactive: -0.161 | inactive: 0.03 | inactive: -0.009 | inactive: -0.006 | inactive: 0.006 | inactive: 0.001 | inactive: 0.023 | inactive: -0.008 | inactive: -0.006 | inactive: -0.04 | inactive: -0.052 | inactive: 0.045 | inactive: 0.022 | inactive: 0.049 | inactive: -0.012 | inactive: -0.079
B3GAT3 (UniProt O94766) | inactive: -0.077 | inactive: -0.022 | inactive: -0.006 | inactive: -0.017 | inactive: 0.034 | inactive: -0.002 | inactive: 0.081 | inactive: -0.062 | inactive: 0.006 | inactive: 0.037 | inactive: -0.015 | inactive: 0.039 | inactive: -0.031 | inactive: 0.191 | inactive: -0.089 | inactive: 0.014 | inactive: 0.123 | inactive: 0.002 | inactive: 0.022 | inactive: -0.129
BORA (UniProt Q6PGQ7) | inactive: 0.011 |  |  |  |  |  |  |  |  |  | inactive: 0.488 |  |  |  | inactive: -0.085 |  |  |  | inactive: -0.01 | 

Quoted from the results shown for reference:
Target | log2 fold change (bafetinib) | log2 fold change [1] | log2 fold change (nilotinib) | log2 fold change [2] | log2 fold change (dasatinib) | log2 fold change [3] | log2 fold change [4] | log2 fold change [5] | log2 fold change (tipifarnib) | log2 fold change (mubritinib) | log2 fold change [6] | log2 fold change [7] | log2 fold change [8] | log2 fold change [9] | log2 fold change (entinostat) | log2 fold change (vorinostat) | log2 fold change (citarinostat) | log2 fold change (silmitasertib) | log2 fold change [10] | log2 fold change [11]
ATRN (UniProt O75882) | inactive: -0.006 | inactive: 0.004 | inactive: 0.027 | inactive: -0.055 | inactive: -0.047 | inactive: 0 | inactive: 0.097 |  | inactive: 0.048 | inactive: -0.027 | inactive: -0.007 | inactive: -0.023 | inactive: -0.073 | inactive: -0.031 | inactive: -0.016 | inactive: -0.006 | inactive: -0.004 | inactive: 0.006 | active: -0.538 | inactive: -0.092
B4GAT1 (UniProt O43505) | inactive: -0.158 | inactive: 0.138 | inactive: 0.031 | inactive: 0.28 | inactive: -0.012 | inactive: -0.051 | inactive: -0.129 | inactive: -0.011 | inactive: -0.085 |  |  | inactive: 0.093 |  | inactive: 0.105 |  | inactive: 0.109 | inactive: 0.114 |  | inactive: 0.036 | inactive: 0
BPGM (UniProt P07738) | inactive: -0.019 | inactive: 0.001 | inactive: 0.005 | inactive: -0.008 | inactive: 0.044 | inactive: -0.034 | inactive: 0.032 | inactive: -0.128 | inactive: 0.022 | inactive: 0.064 | inactive: -0.008 | inactive: 0.018 | inactive: 0.029 | inactive: 0.053 | inactive: -0.045 | inactive: -0.007 | inactive: 0.034 | inactive: -0.016 | inactive: -0.01 | inactive: -0.001
B2M (UniProt P61769) | inactive: 0.098 | inactive: 0.011 | inactive: 0.069 | inactive: -0.058 | inactive: 0.047 | inactive: 0.004 | inactive: 0.038 | inactive: 0.031 | inactive: -0.07 | inactive: -0.054 | inactive: -0.024 | inactive: -0.091 | inactive: 0.025 | inactive: 0.083 | inactive: -0.021 | inactive: -0.028 | inactive: 0.036 | inactive: -0.01 | inactive: -0.098 | inactive: -0.2
BPNT1 (UniProt O95861) | inactive: 0.021 | inactive: -0.027 | inactive: 0.1 | inactive: 0.042 | inactive: 0.028 | inactive: 0.001 | inactive: 0.023 | inactive: 0.01 | inactive: -0.049 | inactive: 0.037 | inactive: -0.017 | inactive: 0.004 | inactive: 0.007 | inactive: -0.016 | inactive: -0.011 | inactive: -0.023 | inactive: 0.003 | inactive: -0.032 | inactive: -0.046 | inactive: -0.01
